Results are given in words; binding and its absence hold for the method and conditions named. Binding seen in cells or lysates may run through a third protein. A yes stands for co-enrichment or nearness to the bait. Other partners may have been found.

Sequences of proteins named here, by UniProt entry; tags and fusion partners are left off. Residues count along the entry.
UniProt P21860, residues 20-1342: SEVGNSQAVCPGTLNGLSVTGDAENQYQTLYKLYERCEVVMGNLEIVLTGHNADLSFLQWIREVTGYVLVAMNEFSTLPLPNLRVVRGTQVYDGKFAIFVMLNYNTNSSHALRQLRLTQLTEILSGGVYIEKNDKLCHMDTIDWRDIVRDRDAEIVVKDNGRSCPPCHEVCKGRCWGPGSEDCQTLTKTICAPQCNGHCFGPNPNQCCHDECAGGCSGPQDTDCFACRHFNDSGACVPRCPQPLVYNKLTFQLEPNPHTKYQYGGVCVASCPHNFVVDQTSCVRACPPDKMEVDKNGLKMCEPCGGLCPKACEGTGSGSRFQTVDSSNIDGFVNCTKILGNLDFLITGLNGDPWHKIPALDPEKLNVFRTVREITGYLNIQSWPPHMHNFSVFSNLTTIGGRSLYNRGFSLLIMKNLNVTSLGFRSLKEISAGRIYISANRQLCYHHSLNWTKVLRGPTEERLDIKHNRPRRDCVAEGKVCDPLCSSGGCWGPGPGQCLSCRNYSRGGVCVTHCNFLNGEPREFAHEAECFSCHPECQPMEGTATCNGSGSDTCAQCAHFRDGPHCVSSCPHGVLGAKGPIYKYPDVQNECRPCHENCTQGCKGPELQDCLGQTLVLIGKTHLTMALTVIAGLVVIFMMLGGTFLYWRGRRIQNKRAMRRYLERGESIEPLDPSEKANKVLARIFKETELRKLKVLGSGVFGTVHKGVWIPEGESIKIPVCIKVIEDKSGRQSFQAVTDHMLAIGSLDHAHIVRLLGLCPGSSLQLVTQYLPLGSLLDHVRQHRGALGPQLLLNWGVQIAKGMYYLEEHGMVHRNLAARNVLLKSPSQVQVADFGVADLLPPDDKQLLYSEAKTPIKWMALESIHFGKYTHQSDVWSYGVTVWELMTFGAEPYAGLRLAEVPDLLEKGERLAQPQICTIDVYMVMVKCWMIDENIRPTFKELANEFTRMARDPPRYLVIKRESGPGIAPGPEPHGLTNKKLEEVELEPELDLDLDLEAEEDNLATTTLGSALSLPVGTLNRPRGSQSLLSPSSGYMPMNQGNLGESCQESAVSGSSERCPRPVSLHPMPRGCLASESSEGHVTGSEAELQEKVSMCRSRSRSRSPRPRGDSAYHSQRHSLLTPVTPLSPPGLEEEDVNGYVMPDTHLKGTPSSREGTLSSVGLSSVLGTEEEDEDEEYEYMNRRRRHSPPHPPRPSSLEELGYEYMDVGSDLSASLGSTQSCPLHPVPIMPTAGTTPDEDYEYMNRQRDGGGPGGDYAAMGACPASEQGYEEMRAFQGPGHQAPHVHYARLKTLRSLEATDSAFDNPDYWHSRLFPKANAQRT

The target in the experiment is HER3 of human cancer cell lines (endogenous) (human) (UniProt P21860). The experiment is described as follows: immunoprecipitation and mass spectrometry.

B1: 1A5 antibody (antibody, V domains shown)
VH: QVQLQQSGAELARPGASVKLSCKASGYTFTDNYINWMKQRPGQGLEWIGEIYPGSGNTYYNEKFKGKATLTADKSSSTAYMQLSSLTSEESAVYFCARSPNLRLYYFDYWGQGTTLTVSS
VL: DIVMTQSPATLSVTPGDRVSLSCRASQSINDYLYWYQQKLHESPRLLIKFASHSISGIPSRFSGSGSGSDFTLSINSVEPEDVGVYYCQNGHSFPLTFGAGTKLELK
notes: Hybridoma monoclonal antibody detected with goat anti-mouse IgG; also called ligand-independent HER3 antibody
For the molecule B1, the binding entry is reported as “binds”.

The values above are taken from patent US20140314774A1 (UAB RESEARCH FOUNDATION, published 2014).
